# US12636378B2, “Targeted antigen delivery system and uses thereof” (SRI International, priority 2020, dated 2026)
# Not every detail of the peptide structures is certain; ends, links or a residue may be inferred. No end group written: not given here.
# Test system: H1993 cells
# Assay: Alanine scanning and truncation peptides, cell binding by flow cytometry
# Format: cell-based, human
sequence,measurement,value
"LQWRRNFGVWARYRL [SEQ ID NO:1, LQWRRNFGVWARYRL]",cell binding compared to parental peptide SEQ ID NO:2,increased cell binding
